In PubChem BioAssay AID328 (DTP/NCI, 2004) one finds T/C data, which are given here for 4 molecules.

The assay has as its system BDF1 mice, P388 leukemia ip, median survival T/C. Nature of the assay: NCI In Vivo Anticancer Drug Screen. Data for tumor model P388 Leukemia (intraperitoneal) in B6D2F1 (BDF1) mice. As to conditions: T/C endpoint: median survival time, higher T/C = longer survival. An outline of the steps:
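Reported as T/C, where T is the survival measurement in dosed animals and C the same measurement in vehicle controls.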

The list shows only some results of the screen, not a fair sample: it gathers some chemical classes. Not every dose and run of a compound is shown. T/C gives the treated animals as a percentage of the vehicle group. For survival time, the PubChem record calls one and a half times the control and up active, and a quarter to a half above the control has no call in these data; cut-offs in other NCI protocols can differ. Some entries show no survivor count and are marked so; the dose need not have been tolerated. Schedule codes are those of the source, read here as Q, the interval in days (D) or hours (H), X, the number of doses. Some doses were run more than once; the values are given in rising order.

As to `CCC1(CC)NC(=O)N(CCN(CCCl)CCCl)C1=O`, the T/C runs as follows: (dose: 0.04 mg/kg/injection, schedule: Q01DX009 (ip), vehicle: saline) 95 % of control [survivor count not shown]; (dose: 0.09 mg/kg/injection, schedule: Q01DX009 (ip), vehicle: saline) 105 % of control [survivor count not shown]; (dose: 0.19 mg/kg/injection, schedule: Q01DX009 (ip), vehicle: saline) 114 % of control [survivor count not shown]; (dose: 0.39 mg/kg/injection, schedule: Q01DX009 (ip), vehicle: saline) 128 % of control [survivor count not shown]; (dose: 0.78 mg/kg/injection, schedule: Q01DX009 (ip), vehicle: saline) 140 % of control [survivor count not shown]; (dose: 1.5 mg/kg/injection, schedule: Q01DX009 (ip), vehicle: saline) 104 % of control [survivor count not shown]. The T/C (dose: 1.56 mg/kg/injection, schedule: Q01DX009 (ip), vehicle: saline) is 166 % of control [survivor count not shown]; the T/C (dose: 3.0 mg/kg/injection, schedule: Q01DX009 (ip), vehicle: saline) is 103 % of control [survivor count not shown]; the T/C (dose: 3.12 mg/kg/injection, schedule: Q01DX009 (ip), vehicle: saline) was 210 % of control [survivor count not shown]; the T/C (dose: 6.0 mg/kg/injection, schedule: Q01DX009 (ip), vehicle: saline) is 107 % of control [survivor count not shown]; the T/C (dose: 6.25 mg/kg/injection, schedule: Q01DX009 (ip), vehicle: saline) was 263 % of control [survivor count not shown]; the T/C (dose: 12.0 mg/kg/injection, schedule: Q01DX009 (ip), vehicle: saline) was 107 % of control [survivor count not shown]. Where the note is “dose: 12.5 mg/kg/injection, schedule: Q01DX009 (ip), vehicle: saline”, the T/C was 131 % of control [survivor count not shown].
Regarding `OCC#CCN(CCCl)CCCl`, the T/C (dose: 0.5 mg/kg/injection, schedule: Q01DX009 (ip), vehicle: saline) was 154 % of control [survivor count not shown]; the T/C (dose: 0.9 mg/kg/injection, schedule: Q04DX003 (ip), vehicle: saline) is 150 % of control [survivor count not shown]; the T/C (dose: 1.5 mg/kg/injection, schedule: Q04DX003 (ip), vehicle: saline) is 158 % of control [survivor count not shown]; the T/C (dose: 2.0 mg/kg/injection, schedule: Q01DX009 (ip), vehicle: saline) was 272 % of control [survivor count not shown]; the T/C (dose: 2.25 mg/kg/injection, schedule: Q04DX003 (ip), vehicle: saline) is 204 % of control [survivor count not shown].
In the case of `ClCCN(CCCl)CCSc1nc2ccccc2[nH]1`, the T/C (dose: 100.0 mg/kg/injection, schedule: Q01DX001 (ip), vehicle: saline with Tween-80) is 90 % of control [survivor count not shown].
Regarding `ClCCN(CCCl)Cc1nc2ccccc2[nH]1`, the T/C (dose: 1.25 mg/kg/injection, schedule: Q01DX010 (ip), vehicle: saline) was 160 [survivor count not shown] and 163 % of control [survivor count not shown]; the T/C (dose: 2.5 mg/kg/injection, schedule: Q01DX010 (ip), vehicle: saline) was 175 [survivor count not shown] and 181 % of control [survivor count not shown]; the T/C (dose: 5.0 mg/kg/injection, schedule: Q01DX010 (ip), vehicle: saline) is 215 [survivor count not shown] and 227 % of control [survivor count not shown]; the T/C (dose: 10.0 mg/kg/injection, schedule: Q01DX010 (ip), vehicle: saline) is 140 % of control [survivor count not shown].
